Assay results as given in patent US20240238237A1, “CONJUGATED LINOLEIC ACID SUPPLEMENTATION FOR DISEASE TREATMENT” (VIRGINIA TECH INTELLECTUAL PROPERTIES, INC., priority 2021, published 2024).

Experiments:
[1] = test system: WT, PWS (Snord116m+/p−) and PWS-KO (Snord116m−/p−) mice; assay: Indirect calorimetry and home-cage activity (TSE system); type: in vivo, mouse
Protocol: Indirect calorimetry and locomotor activity measurements were performed using a Labmaster Mouse calorimetry and Locomotor system (TSE Systems, Bad Homburg, Germany) in the Metabolism Core Virginia Tech. VO2 consumption and VCO2 production in individual mice were measured using metabolic chambers. Air going into the TSE system was at 20.9% oxygen, 0.05% CO2, and the airflow rate was 0.4 L/min (Airgas, Christiansburg, VA, USA). Data were collected every 15 min. Body composition was measured, as described above, prior to assessment of the animals using the TSE system. A photobeam-based ac-tivity monitoring system detected and recorded ambulatory movements. The results were used to calculate the respiratory exchange ratio (RER) and total energy expenditure/gram lean mass. Energy expenditure (KJ/h) was calculated using the formula VO2×(3.815+(1.232×RER))×4.1868 and normalized to the lean mass determined by NMR. All parameters were measured continuously and simultaneously for 48 h after approximately 20 h of adaptation for single-housed mice. The average values for the last 24-48 h were used for analysis. To calculate hourly activity, the average of two-hour bins of activity from the last 24 h period was plotted. […]

[2] = test system: WT, PWS (Snord116m+/p−) and PWS-KO (Snord116m−/p−) mice; assay: Weekly body weight, fat and lean mass (NMR), rectal temperature and food intake, Example 1; type: in vivo, mouse
Protocol: All animal protocols were approved by the Institutional Animal Care and Use Commit-tee at Virginia Tech. Mice with the Snord116 paternal deletion (B6[Cg]-Snord116tm1.1Uta/J Stock No: 008149|1-loxp (KO), Snord116del) were obtained from Jackson Laboratories and maintained on a C57Bl/6 background. Genotyping and breeding were performed as reported. WT mice for the study were siblings of either the PWS (Snord116m+/p−) or PWS-KO (Snord116m−/p−) mice. PWS mice were generated by crossing WT females and male mice who were Snord116m−/p+. Breeder males (Snord116m−/p+) were generated in separate crosses to inherited their deleted allele from a maternal chromosome so that they were considered phenotypically normal in regards to Snord116 expression. PWS-KO (Snord116m−/p−) mice were generated by using non-sibling male and female mice of the genotype Snord116m−/p+ who had inherited their deleted allele maternally. In this type of mating, 50% of the offspring would be heterozygous (and never used for mating or the study, as the origin of their deleted allele could not be determined), and 25% each would have WT alleles or would be PWS-KO. Mice were housed at room temperature at about 22° C. with 12 h light/dark cycles at 7 a.m. and 7 p.m. and ad-libitum access to food (4.5% crude fat) and water. Mice were weaned at 3 weeks old, genotyped using an ear snip, […]. ear tagged, and housed with littermates of the same sex. For tissue dissection, mice were euthanized by CO2 asphyxiation between 12 p.m. and 2 p.m.
Body weight, fat, and lean mass, rectal temperature, and food intake were measured weekly. For body weight, fat, and lean mass measurements, mice were weighed on Mondays using a standard scale, and then placed in a Bruker (Billrica, MA, USA) LF90 NMR machine using the mouse holder. Measurements were recorded in grams for fat and lean mass.
All values were expressed as mean+SEM unless indicated otherwise. […] For the responses of weight, fat, lean mass, temperature, and food intake shown in figures, a fitted least squares regression with effects of genotype, treatment, and genotype×treatment was analyzed for Week 12 data only. Responses of these dependent variables were also analyzed across the 12-week time period, adding in effects of week, week×treatment, and week×genotype. […] The responses that had pre-post measures (wheel running, elevated plus, fasting glucose, glucose tolerance) were analyzed separately for the pre and post time periods (no effect of time). […] Rotarod data were collected only during the post-period and analyzed with a response of time and effects of genotype, treatment, and genotype×treatment. […]

## conjugated linoleic acid [CLA]
[1]; Week 12, N 4-7 per group
  Respiratory exchange ratio (VCO2/VO2): no significant effects
[1]; Week 12, all genotypes with CLA diet
  Energy expenditure per fat-free mass: slight but non-significant increases
[2]; all genotypes, entire study
  Food intake, effect of CLA diet: significantly increased food intake
[2]; all genotypes, entire study, CLA diet (control diet 16.48 g)
  Food intake: 17.18 g
[2]; end of study (Week 12)
  Food intake at Week 12, between treatments: no overall significant difference
[2]; whole study, all genotypes
  Body temperature, effect of treatment: significant effect of treatment; also recorded: dropped significantly

Entries after “also recorded” stand apart in the source; their conditions may differ.
